Experiments:
purified BoTEMO enzyme = assay: Specific activity and ee of purified BoTEMO enzyme against a series of thioethers; assay type: biochemical, Bradyrhizobium oligotrophicum ECU1212; conditions: ee of sulfoxide product with configuration
Procedure: To 0.5 ml of potassium phosphate buffer (100 mmol/L, pH 9.0) was added purified BoTEMO enzyme (purified BoTEMO enzyme prepared in accordance with the method of Example 5). A thioether substrate dissolved in DMSO was added so that the final concentration of the thioether was 0.2-2 mmol/L and the final concentration of DMSO was 2% (v/v), and NADPH was added to a final concentration 0.2-2 mmol/L. At 25° C., the reaction was stirred at 1000 rpm under shaking. After completion of reaction, 0.6 ml of ethyl acetate was added for extraction. The extract was dried over anhydrous sodium sulfate. The organic clear liquid was taken up, and evaporated overnight to remove the solvent. Then, the residue was dissolved with 0.5 ml of isopropanol and analyzed for measuring the ee value of product.
The particular analysis conditions of conversion rate and ee value of product are as follows:
(§1) The analysis is carried out with a high performance liquid chromatograph (HPLC) under the conditions of: a chiral OD-H column ([…], 5 μm particle size, Daicel), a mobile phase of n-hexane:isopropanol=93:7, a flow rate of 1 ml/min, and UV detection at 254 nm; or an AS-H column (250 mm×4.6 mm, 5 μm particle size, Daicel), a mobile phase of n-hexane:isopropanol=55:45, a flow rate of 0.5 mL/min, and UV detection at 254 nm.
The activity of BoTEMO for catalyzing the asymmetrical oxidation of a series of thioether substrates to produce optically active sulfoxides was further determined by the method in accordance with Example.

Recombinant BoTEMO = assay: Asymmetric oxidation of thioethers by recombinant BoTEMO crude enzyme with glucose dehydrogenase recycling; assay type: biochemical, Bradyrhizobium oligotrophicum ECU1212
Procedure: as §1
To 0.5 ml potassium phosphate buffer (100 mmol/L, pH 9.0) was added 100 μL of crude enzyme solution of BoTEMO (the crude enzyme solution in accordance with the method of Example 5) and a crude enzyme solution of glucose dehydrogenase, and thioanisole, methanol, NADP^+ and glucose were added to the final concentration of 2 mmol/L, 10% (v/v), 0.2 mmol/L and 3.6 g/L, respectively. At 25° C. and 1000 rpm, the mixture was shaken for 1 h. After completion of reaction, 0.6 ml of ethyl acetate was added for extraction. The extract was dried over anhydrous sodium sulfate, and evaporated to remove the solvent. Then, the residue was dissolved in 0.5 ml of isopropanol. The mixture was analyzed in accordance with the method of Example 7 for measure the conversion of reaction and the ee value of product. The conversion of reaction was above 99%, and the ee value of product was above 99% (S).
To 0.5 ml of potassium phosphate buffer (100 mmol/L, pH 9.0) was added 100 μL crude enzyme solution of BoTEMO (the crude enzyme solution prepared in accordance with the method of Example 5) and a crude enzyme solution of glucose dehydrogenase, and omeprazole thioether, methanol, NADP^+ and glucose were added to the final concentrations of 0.2 mmol/L, 10% (v/v), 0.2 mmol/L and 3.6 g/L, respectively. At 25° C. and 1000 rpm, the mixture was shaken for 1 h. After completion of reaction, 0.6 ml of ethyl acetate was added for extraction. […] Then, the residue was dissolved in 0.5 ml isopropanol, and the solution was analyzed in accordance with the method of Example 7 for measuring the conversion of reaction and the ee value of product. […]
To 10 ml of potassium phosphate buffer (100 mmol/L, pH 9.0) was added 0.1 g of lyophilized crude enzyme powders of BoTEMO (crude enzyme powders prepared in accordance with the method of Example 5) and 0.02 g of lyophilized crude enzyme powder of glucose dehydrogenase (15 U/mg), and 1-3 g/L of omeprazole thioether/lansoprazole thioether/pantoprazole thioether/rabeprazle thioether/ilaprazole thioether, 10% (v/v) of methanol, 0.2 mmol/L of NADP^+ and 10 g/L of glucose were added. […] Then, the residue was dissolved in 0.5 ml of isopropanol, and the solution was analyzed in accordance with the method of Example 7 for measuring the conversion of reaction and the ee value of product. […]

Row | Structure (SMILES) | ee (%) (purified BoTEMO enzyme) | also measured
1 | Cc1c(OCC(F)(F)F)ccnc1CSc1nc2ccccc2[nH]1 [compound 8] | 99 (R) % | –
2 | CSc1ccccc1 [thioanisole] | – | ee value of product (Recombinant BoTEMO; (S), crude enzyme solution, 2 mmol/L substrate, 1 h): above 99%
3 | Cc1c(OCC(F)(F)F)ccnc1CSc1nc2ccccc2[nH]1 [lansoprazole thioether] | – | ee value of product (Recombinant BoTEMO; (R), 2 g/L substrate, 24 h): above 99%
4 | COc1ccnc(CSc2nc3cc(-n4cccc4)ccc3[nH]2)c1C [compound 3] | 99 (R) % | –
5 | COCCCOc1ccnc(CSc2nc3ccccc3[nH]2)c1C [compound 6] | 99 (R) % | –
6 | COc1ccc2[nH]c(SCc3ncc(C)c(OC)c3C)nc2c1 [omeprazole thioether] | – | ee value of product (Recombinant BoTEMO; (R), 1 g/L substrate, 3 h): above 99%; ee value of product (Recombinant BoTEMO; (R), crude enzyme solution, 0.2 mmol/L substrate, 1 h): above 99%
7 | CSc1ccccc1 [compound 1] | 99 (S) % | –
8 | COc1ccc2[nH]c(SCc3ncc(C)c(OC)c3C)nc2c1 [compound 2] | 99 (R) % | –
9 | COc1ccnc(CSc2nc3cc(OC(F)F)ccc3[nH]2)c1OC [compound 7] | 99 (S) % | –
10 | COc1ccc2[nH]c(SC)nc2c1 [compound 5] | 99 (R) % | –
11 | CSc1ccc(C)cc1 [compound 4] | 52 (R) % | –
